From publication PMC11432330, “Novel Drug-like HsrA Inhibitors Exhibit Potent Narrow-Spectrum Antimicrobial Activities against Helicobacter pylori” (International Journal of Molecular Sciences, 2024)
The source gives many values for each of these; only a part stands here.

System: H. pylori 26695
Assay: In vivo inhibition of HsrA: RNA-Seq transcriptomic analysis of exposed cells
Format: cell-based, Helicobacter pylori
Procedure: Bacterial growth from three blood agar plates of H. pylori ATCC 700392 (aka 26695) incubated for 48 h at 37 °C under microaerobic conditions was aseptically resuspended in BHI + FBS and adjusted to 10^7 CFU/mL. BHI broth cultures were incubated microaerobically at 37 °C for 24 h. […] At this time, bacterial growth was stopped by adding 1.5 mL ice-cold RNA stop solution (95% absolute ethanol, 5% acid-buffered phenol) and subsequently incubated on ice. Control samples were exposed to the same amount of DMSO instead of the inhibitor. Helicobacter cells from all samples were harvested by centrifugation (4000 rpm at 4 °C for 10 min), then the pellets were quickly frozen by immersion in liquid nitrogen and stored at −80 °C.
RNA-Seq analysis was performed by GENEWIZ (Azenta Life Sciences, Leipzig, Germany). Frozen cell pellets from two biological replicates of each treatment condition were properly submitted to GENEWIZ in dry ice. RNA-Seq libraries were prepared according to standard protocols via rRNA depletion, RNA fragmentation and random priming, reverse transcription, 5’-phosphorylation and dA-tailing of cDNAs, adaptor ligation, and PCR enrichment. Once the quality of each library was confirmed, they were sequenced on an Illumina NovaSeq 6000 (Illumina, San Diego, CA, USA) with 150-bp paired-ends. Raw sequence reads were filtered to remove possible adapter sequences and nucleotides with poor quality using Trimmomatic v.0.36 [105]. The trimmed reads were subsequently mapped to the H. pylori strain 26695 reference genome NC_000915.1 available on NCBI, by using the Bowtie2 aligner v.2.2.6 [106]. Unique gene hit counts were calculated by using featureCounts from the Subread package v.1.5.2. Only unique reads that fell within the gene regions were counted. Using DESeq2 [108], a comparison of the gene expression between the control and treated groups of samples was performed. The Wald test was used to generate p-values and log2 fold changes. Genes with an adjusted p-value < 0.05 and absolute log2 fold change >1 were considered as differentially expressed genes (DEGs) for each comparison. The RNA-Seq data generated in this study have been deposited in ArrayExpress with the accession number E-MTAB-14255.

NC(=NOC(=O)Nc1ccc(Cl)cc1)c1csc([N+](=O)[O-])c1 [Ligand V, N′-{[(4-chloroanilino)carbonyl]}oxy-5-nitrothiophene-3-carboximidamide]
log2 Fold Change (gene HP0498, exposed to lethal concentration of V vs control): -0.924
log2 Fold Change (gene HP0499, exposed to lethal concentration of V vs control): -0.948
log2 Fold Change (gene HP0506, exposed to lethal concentration of V vs control): -1.603
log2 Fold Change (gene HP0507, exposed to lethal concentrations vs control): -0.762
log2 Fold Change (gene HP0508, exposed to lethal concentration of V vs control): -1.161
log2 Fold Change (gene HP0509, exposed to lethal concentrations vs control): 0.101
log2 Fold Change (gene HP0510, exposed to lethal concentrations vs control): 1.452
log2 Fold Change (gene HP0511, exposed to lethal concentrations of V vs control): 0.491
log2 Fold Change (gene HP0512, exposed to lethal concentrations vs control): 0.089
log2 Fold Change (gene HP0520, exposed to lethal concentrations vs control): 1.569
log2 Fold Change (gene HP0522, exposed to lethal concentration of V vs control): -0.888
log2 Fold Change (gene HP0523, exposed to lethal concentration of V vs control): -1.071
log2 Fold Change (gene HP0524, exposed to lethal concentrations vs control): -0.699
log2 Fold Change (gene HP0526, exposed to lethal concentration of V vs control): -1.128
log2 Fold Change (gene HP0527, exposed to lethal concentrations vs control): -0.822
log2 Fold Change (gene HP0528, exposed to lethal concentrations of V vs control): 0.539
log2 Fold Change (gene HP0529, exposed to lethal concentration of V vs control): -0.987
log2 Fold Change (gene HP0530, exposed to lethal concentrations vs control): -0.777
log2 Fold Change (gene HP0531, exposed to lethal concentrations vs control): -0.014
log2 Fold Change (gene HP0532, exposed to lethal concentrations of V vs control): 0.758
log2 Fold Change (gene HP0535, exposed to lethal concentrations vs control): -0.063
log2 Fold Change (gene HP0538, exposed to lethal concentrations vs control): -0.871
log2 Fold Change (gene HP0541, exposed to lethal concentrations vs control): 1.263
log2 Fold Change (gene HP0542, exposed to lethal concentrations vs control): 1.038
log2 Fold Change (gene HP0544, exposed to lethal concentration of V vs control): -1.327
log2 Fold Change (gene HP0545, exposed to lethal concentrations vs control): 0.068
log2 Fold Change (gene HP0546a, exposed to lethal concentration of V vs control): -1.590
log2 Fold Change (gene HP0547, exposed to lethal concentrations vs control): 1.917
log2 Fold Change (gene HP0549, exposed to lethal concentrations vs control): -0.825
log2 Fold Change (gene HP0552, exposed to lethal concentrations vs control): -0.792
log2 Fold Change (gene HP0553, exposed to lethal concentration of V vs control): -1.109
log2 Fold Change (gene HP0554, exposed to lethal concentration of V vs control): -1.186
log2 Fold Change (gene HP0556, exposed to lethal concentrations vs control): 1.197
log2 Fold Change (gene HP0557, exposed to lethal concentration of V vs control): -1.409
log2 Fold Change (gene HP0558, exposed to lethal concentrations vs control): -0.745
log2 Fold Change (gene HP0565, exposed to lethal concentrations of V vs control): 0.966
log2 Fold Change (gene HP0567, exposed to lethal concentration of V vs control): -0.892
log2 Fold Change (gene HP0570, exposed to lethal concentrations vs control): 1.868
log2 Fold Change (gene HP0571, exposed to lethal concentrations of V vs control): 0.760
log2 Fold Change (gene HP0572, exposed to lethal concentrations vs control): -0.097
log2 Fold Change (gene HP0573, exposed to lethal concentrations vs control): 1.742
log2 Fold Change (gene HP0574, exposed to lethal concentration of V vs control): -2.035
log2 Fold Change (gene HP0575, exposed to lethal concentration of V vs control): -1.066
log2 Fold Change (gene HP0577, exposed to lethal concentrations vs control): 0.069
log2 Fold Change (gene HP0578, exposed to lethal concentrations vs control): -0.657
log2 Fold Change (gene HP0579, exposed to lethal concentrations vs control): -0.671
log2 Fold Change (gene HP0580, exposed to lethal concentrations vs control): -0.090
log2 Fold Change (gene HP0581, exposed to lethal concentration of V vs control): -0.956
log2 Fold Change (gene HP0582, exposed to lethal concentration of V vs control): -1.418
log2 Fold Change (gene HP0584, exposed to lethal concentrations of V vs control): 0.923
log2 Fold Change (gene HP0585, exposed to lethal concentrations vs control): -0.015
log2 Fold Change (gene HP0585a, exposed to lethal concentrations vs control): -0.037
log2 Fold Change (gene HP0592, exposed to lethal concentration of V vs control): -1.785
log2 Fold Change (gene HP0594, exposed to lethal concentration of V vs control): -0.908
log2 Fold Change (gene HP0595, exposed to lethal concentrations vs control): -0.101
log2 Fold Change (gene HP0597, exposed to lethal concentrations of V vs control): 0.579
log2 Fold Change (gene HP0598, exposed to lethal concentrations vs control): -0.833
log2 Fold Change (gene HP0599, exposed to lethal concentrations vs control): 0.090
log2 Fold Change (gene HP0601, exposed to lethal concentrations vs control): 1.109
log2 Fold Change (gene HP0603, exposed to lethal concentrations of V vs control): 0.622
log2 Fold Change (gene HP0605, exposed to lethal concentrations vs control): -0.075
log2 Fold Change (gene HP0606, exposed to lethal concentration of V vs control): -0.895
log2 Fold Change (gene HP0614, exposed to lethal concentrations of V vs control): 0.720
log2 Fold Change (gene HP0620, exposed to lethal concentration of V vs control): -0.897
log2 Fold Change (gene HP0621, exposed to lethal concentrations vs control): -0.863
log2 Fold Change (gene HP0622, exposed to lethal concentration of V vs control): -1.153
log2 Fold Change (gene HP0624, exposed to lethal concentrations vs control): -0.767
log2 Fold Change (gene HP0626, exposed to lethal concentrations vs control): 1.393
log2 Fold Change (gene HP0629, exposed to lethal concentrations vs control): 1.236
log2 Fold Change (gene HP0630, exposed to lethal concentrations vs control): -0.625
log2 Fold Change (gene HP0631, exposed to lethal concentrations vs control): 2.021
log2 Fold Change (gene HP0632, exposed to lethal concentrations vs control): 1.870
log2 Fold Change (gene HP0633, exposed to lethal concentrations vs control): 1.625
log2 Fold Change (gene HP0634, exposed to lethal concentrations of V vs control): 0.504
log2 Fold Change (gene HP0635, exposed to lethal concentrations vs control): -0.739
log2 Fold Change (gene HP0637, exposed to lethal concentration of V vs control): -1.649
log2 Fold Change (gene HP0638, exposed to lethal concentrations vs control): 0.080
log2 Fold Change (gene HP0644, exposed to lethal concentrations vs control): -0.793
log2 Fold Change (gene HP0645, exposed to lethal concentration of V vs control): -1.748
log2 Fold Change (gene HP0646, exposed to lethal concentrations vs control): -0.862
log2 Fold Change (gene HP0653, exposed to lethal concentrations vs control): 2.242
log2 Fold Change (gene HP0654, exposed to lethal concentrations of V vs control): 0.826
log2 Fold Change (gene HP0656, exposed to lethal concentrations vs control): -0.824
log2 Fold Change (gene HP0657, exposed to lethal concentrations vs control): -0.772
log2 Fold Change (gene HP0663, exposed to lethal concentrations vs control): 1.111
log2 Fold Change (gene HP0664, exposed to lethal concentrations vs control): 0.136
log2 Fold Change (gene HP0665, exposed to lethal concentrations of V vs control): 0.535
log2 Fold Change (gene HP0666, exposed to lethal concentrations vs control): -0.109
log2 Fold Change (gene HP0672, exposed to lethal concentrations vs control): -0.133
log2 Fold Change (gene HP0675, exposed to lethal concentrations vs control): 0.086
log2 Fold Change (gene HP0677, exposed to lethal concentrations vs control): -0.113
log2 Fold Change (gene HP0681, exposed to lethal concentrations vs control): 1.111
log2 Fold Change (gene HP0682, exposed to lethal concentrations vs control): 1.136
log2 Fold Change (gene HP0686, exposed to lethal concentrations vs control): 1.023
log2 Fold Change (gene HP0687, exposed to lethal concentration of V vs control): -1.311
log2 Fold Change (gene HP0690, exposed to lethal concentrations vs control): 1.169
log2 Fold Change (gene HP0691, exposed to lethal concentrations vs control): 1.485
log2 Fold Change (gene HP0693, exposed to lethal concentrations vs control): 1.154
log2 Fold Change (gene HP0695, exposed to lethal concentrations vs control): 2.310
log2 Fold Change (gene HP0696, exposed to lethal concentrations vs control): 2.297
log2 Fold Change (gene HP0697, exposed to lethal concentrations vs control): 1.780
log2 Fold Change (gene HP0700, exposed to lethal concentration of V vs control): -1.131
log2 Fold Change (gene HP0701, exposed to lethal concentrations vs control): 0.074
log2 Fold Change (gene HP0703, exposed to lethal concentration of V vs control): -0.991
log2 Fold Change (gene HP0708, exposed to lethal concentrations vs control): 0.027
log2 Fold Change (gene HP0710, exposed to lethal concentrations vs control): 1.144
log2 Fold Change (gene HP0711, exposed to lethal concentrations of V vs control): 0.561
log2 Fold Change (gene HP0714, exposed to lethal concentrations vs control): 1.040
log2 Fold Change (gene HP0715, exposed to lethal concentrations vs control): 1.758
log2 Fold Change (gene HP0716, exposed to lethal concentrations of V vs control): 0.879
log2 Fold Change (gene HP0717, exposed to lethal concentrations of V vs control): 0.698
log2 Fold Change (gene HP0718, exposed to lethal concentrations vs control): -0.082
log2 Fold Change (gene HP0721, exposed to lethal concentration of V vs control): -0.904
log2 Fold Change (gene HP0723, exposed to lethal concentrations vs control): 1.622
log2 Fold Change (gene HP0724, exposed to lethal concentrations vs control): 1.088
log2 Fold Change (gene HP0727, exposed to lethal concentrations vs control): -0.083
log2 Fold Change (gene HP0728, exposed to lethal concentrations vs control): -0.686
log2 Fold Change (gene HP0729, exposed to lethal concentrations vs control): 1.192
log2 Fold Change (gene HP0730, exposed to lethal concentrations vs control): 1.444
